Source: the supplement of paper PMC6411743
± gives the standard deviation of the averaged measurements. The list shows a part of the results.

Chains of the proteins cited; added tags and fusions are not shown. Lines headed by an entry give the natural chain unless they say otherwise; changes in a name come on top.
UniProt Q9UKY7: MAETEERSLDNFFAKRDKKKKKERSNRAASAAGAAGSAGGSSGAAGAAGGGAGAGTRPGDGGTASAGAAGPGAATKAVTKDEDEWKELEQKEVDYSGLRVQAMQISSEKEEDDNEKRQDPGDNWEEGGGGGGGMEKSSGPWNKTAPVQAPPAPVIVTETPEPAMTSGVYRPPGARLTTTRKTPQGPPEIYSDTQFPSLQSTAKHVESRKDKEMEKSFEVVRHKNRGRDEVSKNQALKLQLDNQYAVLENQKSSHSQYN
UniProt Q9UFW8: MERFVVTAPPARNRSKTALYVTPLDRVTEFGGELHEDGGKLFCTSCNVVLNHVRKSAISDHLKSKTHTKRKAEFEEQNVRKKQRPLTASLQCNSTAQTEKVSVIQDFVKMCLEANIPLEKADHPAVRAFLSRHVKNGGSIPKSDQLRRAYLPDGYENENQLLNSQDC
UniProt Q9UJX2, whole entry: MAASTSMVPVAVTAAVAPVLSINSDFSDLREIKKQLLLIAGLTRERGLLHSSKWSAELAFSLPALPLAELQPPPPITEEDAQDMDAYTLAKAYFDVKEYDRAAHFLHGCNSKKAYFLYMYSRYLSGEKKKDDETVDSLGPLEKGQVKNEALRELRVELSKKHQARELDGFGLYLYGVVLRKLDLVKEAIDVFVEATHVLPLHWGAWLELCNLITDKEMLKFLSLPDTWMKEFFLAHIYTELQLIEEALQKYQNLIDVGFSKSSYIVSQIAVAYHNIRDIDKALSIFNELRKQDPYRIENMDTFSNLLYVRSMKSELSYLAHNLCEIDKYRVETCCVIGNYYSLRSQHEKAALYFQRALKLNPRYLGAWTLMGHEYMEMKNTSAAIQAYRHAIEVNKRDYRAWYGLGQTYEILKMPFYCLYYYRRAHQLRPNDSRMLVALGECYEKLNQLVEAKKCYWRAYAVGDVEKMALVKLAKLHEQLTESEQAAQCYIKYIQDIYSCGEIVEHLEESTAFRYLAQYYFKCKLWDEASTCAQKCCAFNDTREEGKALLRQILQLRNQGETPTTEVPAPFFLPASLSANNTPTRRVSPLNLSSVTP
UniProt Q9NWS6: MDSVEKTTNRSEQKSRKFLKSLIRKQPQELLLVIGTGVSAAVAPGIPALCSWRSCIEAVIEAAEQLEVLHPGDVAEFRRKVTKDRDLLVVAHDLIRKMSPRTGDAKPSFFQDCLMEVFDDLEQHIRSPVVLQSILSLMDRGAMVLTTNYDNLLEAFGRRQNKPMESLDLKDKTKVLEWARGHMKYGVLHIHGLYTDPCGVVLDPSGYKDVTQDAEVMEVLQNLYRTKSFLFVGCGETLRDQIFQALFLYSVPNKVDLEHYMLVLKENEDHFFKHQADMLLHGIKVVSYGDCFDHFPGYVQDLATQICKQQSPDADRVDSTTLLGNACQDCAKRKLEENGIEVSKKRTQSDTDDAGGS
UniProt Q9NXR5: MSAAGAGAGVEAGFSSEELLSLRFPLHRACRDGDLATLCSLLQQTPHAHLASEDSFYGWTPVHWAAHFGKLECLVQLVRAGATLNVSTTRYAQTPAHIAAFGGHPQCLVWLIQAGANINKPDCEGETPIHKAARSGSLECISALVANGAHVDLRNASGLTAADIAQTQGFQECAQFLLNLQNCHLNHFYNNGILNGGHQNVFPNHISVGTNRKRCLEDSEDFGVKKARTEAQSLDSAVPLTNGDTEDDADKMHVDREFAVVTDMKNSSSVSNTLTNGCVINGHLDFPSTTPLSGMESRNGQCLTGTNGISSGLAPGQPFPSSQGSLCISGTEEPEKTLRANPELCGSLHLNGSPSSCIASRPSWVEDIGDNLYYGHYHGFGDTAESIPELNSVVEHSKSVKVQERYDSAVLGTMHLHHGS
UniProt Q9NY12: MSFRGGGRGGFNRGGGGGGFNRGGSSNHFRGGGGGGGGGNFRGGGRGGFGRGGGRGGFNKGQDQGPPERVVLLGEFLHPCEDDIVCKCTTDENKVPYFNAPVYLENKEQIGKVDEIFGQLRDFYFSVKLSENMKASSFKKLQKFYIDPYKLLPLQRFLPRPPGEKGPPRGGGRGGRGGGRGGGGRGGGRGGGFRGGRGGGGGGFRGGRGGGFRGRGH
UniProt Q9UJX5, whole entry: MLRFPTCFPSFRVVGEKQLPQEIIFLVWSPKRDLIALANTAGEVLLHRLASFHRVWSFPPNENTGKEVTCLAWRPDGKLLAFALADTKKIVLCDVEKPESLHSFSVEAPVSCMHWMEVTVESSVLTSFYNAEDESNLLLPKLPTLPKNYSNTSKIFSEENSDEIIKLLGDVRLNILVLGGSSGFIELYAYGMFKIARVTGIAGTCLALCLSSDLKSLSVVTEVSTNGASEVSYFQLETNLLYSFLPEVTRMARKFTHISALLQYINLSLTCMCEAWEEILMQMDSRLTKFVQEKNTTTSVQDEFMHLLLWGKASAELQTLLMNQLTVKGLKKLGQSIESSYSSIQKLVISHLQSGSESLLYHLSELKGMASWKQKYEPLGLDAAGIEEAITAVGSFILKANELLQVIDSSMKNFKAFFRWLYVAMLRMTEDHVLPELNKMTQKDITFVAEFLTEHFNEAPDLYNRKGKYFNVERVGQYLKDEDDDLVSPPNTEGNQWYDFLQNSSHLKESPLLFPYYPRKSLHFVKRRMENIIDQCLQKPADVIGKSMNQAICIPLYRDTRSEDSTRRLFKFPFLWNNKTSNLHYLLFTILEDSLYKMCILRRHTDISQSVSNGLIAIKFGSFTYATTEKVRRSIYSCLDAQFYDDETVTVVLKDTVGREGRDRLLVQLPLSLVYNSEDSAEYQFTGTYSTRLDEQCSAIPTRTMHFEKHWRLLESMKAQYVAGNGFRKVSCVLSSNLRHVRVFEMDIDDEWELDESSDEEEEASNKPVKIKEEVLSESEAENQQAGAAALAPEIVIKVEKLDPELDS
UniProt Q9UH92: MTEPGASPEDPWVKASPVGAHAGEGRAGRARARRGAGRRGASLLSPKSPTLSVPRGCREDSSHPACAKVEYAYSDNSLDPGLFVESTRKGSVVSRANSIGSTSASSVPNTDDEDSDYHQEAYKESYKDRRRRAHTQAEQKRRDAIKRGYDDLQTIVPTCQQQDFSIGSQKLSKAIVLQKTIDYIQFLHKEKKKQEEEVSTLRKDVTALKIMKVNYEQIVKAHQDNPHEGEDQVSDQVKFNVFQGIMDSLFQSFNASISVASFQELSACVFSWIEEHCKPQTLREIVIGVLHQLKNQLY
UniProt Q9NVV4: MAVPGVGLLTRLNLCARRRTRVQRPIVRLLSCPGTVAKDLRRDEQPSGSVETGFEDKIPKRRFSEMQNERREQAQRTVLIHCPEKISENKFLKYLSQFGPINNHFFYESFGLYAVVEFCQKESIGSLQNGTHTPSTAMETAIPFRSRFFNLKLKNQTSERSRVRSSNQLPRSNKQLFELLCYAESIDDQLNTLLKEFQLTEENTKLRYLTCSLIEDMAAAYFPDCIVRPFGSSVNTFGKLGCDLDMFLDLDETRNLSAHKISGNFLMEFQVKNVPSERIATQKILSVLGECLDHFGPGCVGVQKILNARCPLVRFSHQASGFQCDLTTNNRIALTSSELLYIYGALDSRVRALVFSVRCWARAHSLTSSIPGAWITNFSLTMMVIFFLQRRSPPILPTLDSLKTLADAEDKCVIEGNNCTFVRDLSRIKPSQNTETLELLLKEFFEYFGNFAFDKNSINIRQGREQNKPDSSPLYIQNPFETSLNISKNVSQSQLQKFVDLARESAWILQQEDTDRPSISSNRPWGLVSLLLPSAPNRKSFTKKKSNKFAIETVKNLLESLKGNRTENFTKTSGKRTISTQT
UniProt Q9NV56, whole entry: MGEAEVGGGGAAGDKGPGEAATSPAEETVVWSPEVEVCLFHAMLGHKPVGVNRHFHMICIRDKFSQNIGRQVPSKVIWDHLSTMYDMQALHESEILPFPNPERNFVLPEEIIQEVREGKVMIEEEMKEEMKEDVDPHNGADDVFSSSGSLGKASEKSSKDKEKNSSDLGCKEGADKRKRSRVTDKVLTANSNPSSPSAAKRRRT
UniProt Q9P1F3: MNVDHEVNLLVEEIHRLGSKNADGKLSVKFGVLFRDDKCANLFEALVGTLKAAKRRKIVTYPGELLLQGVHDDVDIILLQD
UniProt Q9UDW1: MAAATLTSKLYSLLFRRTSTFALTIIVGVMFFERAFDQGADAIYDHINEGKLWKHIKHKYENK
UniProt Q9UGU0: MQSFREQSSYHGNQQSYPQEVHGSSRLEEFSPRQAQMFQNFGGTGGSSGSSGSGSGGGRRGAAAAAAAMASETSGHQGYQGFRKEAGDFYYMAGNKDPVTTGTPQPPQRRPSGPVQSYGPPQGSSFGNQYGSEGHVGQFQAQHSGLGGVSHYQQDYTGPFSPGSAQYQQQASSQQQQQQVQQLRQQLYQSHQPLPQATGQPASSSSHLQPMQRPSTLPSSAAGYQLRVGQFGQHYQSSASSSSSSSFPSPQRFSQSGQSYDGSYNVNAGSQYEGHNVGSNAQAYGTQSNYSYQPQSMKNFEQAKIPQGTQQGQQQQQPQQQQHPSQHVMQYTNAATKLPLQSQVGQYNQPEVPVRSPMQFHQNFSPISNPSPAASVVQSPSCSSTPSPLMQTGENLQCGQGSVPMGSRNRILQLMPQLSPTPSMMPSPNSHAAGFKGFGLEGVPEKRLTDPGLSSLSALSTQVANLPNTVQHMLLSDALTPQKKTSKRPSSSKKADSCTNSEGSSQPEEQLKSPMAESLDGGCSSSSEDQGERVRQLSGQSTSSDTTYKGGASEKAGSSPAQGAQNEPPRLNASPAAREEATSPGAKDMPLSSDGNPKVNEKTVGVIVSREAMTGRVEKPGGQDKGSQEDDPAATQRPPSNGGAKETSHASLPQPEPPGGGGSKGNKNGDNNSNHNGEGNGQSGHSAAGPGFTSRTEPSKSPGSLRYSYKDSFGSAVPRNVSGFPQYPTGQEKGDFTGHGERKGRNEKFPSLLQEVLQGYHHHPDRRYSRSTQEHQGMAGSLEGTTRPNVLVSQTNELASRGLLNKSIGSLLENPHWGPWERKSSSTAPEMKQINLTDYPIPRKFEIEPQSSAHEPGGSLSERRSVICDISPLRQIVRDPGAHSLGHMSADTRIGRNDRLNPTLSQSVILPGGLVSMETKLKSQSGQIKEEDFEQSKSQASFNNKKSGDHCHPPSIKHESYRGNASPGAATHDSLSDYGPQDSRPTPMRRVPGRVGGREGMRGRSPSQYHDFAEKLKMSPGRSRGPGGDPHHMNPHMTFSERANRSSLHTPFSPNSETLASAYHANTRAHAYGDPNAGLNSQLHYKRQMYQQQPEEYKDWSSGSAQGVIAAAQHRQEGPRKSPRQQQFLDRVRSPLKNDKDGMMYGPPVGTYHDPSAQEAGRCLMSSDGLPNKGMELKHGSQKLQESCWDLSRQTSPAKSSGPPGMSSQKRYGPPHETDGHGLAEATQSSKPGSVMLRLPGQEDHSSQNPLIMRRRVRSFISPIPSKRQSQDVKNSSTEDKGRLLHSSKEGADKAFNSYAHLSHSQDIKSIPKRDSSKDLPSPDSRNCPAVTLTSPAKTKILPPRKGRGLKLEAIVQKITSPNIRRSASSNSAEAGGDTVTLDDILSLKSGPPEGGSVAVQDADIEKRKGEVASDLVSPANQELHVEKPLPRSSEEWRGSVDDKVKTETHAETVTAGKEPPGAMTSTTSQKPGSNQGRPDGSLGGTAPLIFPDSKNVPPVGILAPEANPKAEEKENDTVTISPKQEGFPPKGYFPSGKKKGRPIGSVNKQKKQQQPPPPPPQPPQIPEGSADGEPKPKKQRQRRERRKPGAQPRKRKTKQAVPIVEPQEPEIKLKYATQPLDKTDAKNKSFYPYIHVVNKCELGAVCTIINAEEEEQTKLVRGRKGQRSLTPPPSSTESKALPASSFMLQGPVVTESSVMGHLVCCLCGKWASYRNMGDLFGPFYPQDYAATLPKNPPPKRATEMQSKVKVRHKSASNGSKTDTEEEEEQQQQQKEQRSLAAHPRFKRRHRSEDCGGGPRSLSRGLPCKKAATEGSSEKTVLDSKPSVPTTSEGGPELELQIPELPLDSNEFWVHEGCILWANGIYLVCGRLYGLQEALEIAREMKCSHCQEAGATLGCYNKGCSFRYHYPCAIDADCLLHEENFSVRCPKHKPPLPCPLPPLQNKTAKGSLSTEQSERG
UniProt Q9NZ43: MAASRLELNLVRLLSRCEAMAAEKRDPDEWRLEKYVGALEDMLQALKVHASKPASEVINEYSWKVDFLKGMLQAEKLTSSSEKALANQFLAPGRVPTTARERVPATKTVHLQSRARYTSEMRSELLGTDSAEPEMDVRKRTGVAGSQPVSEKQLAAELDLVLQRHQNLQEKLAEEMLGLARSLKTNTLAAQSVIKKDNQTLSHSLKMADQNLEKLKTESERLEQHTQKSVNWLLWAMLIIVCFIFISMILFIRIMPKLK
UniProt Q9P287, whole entry: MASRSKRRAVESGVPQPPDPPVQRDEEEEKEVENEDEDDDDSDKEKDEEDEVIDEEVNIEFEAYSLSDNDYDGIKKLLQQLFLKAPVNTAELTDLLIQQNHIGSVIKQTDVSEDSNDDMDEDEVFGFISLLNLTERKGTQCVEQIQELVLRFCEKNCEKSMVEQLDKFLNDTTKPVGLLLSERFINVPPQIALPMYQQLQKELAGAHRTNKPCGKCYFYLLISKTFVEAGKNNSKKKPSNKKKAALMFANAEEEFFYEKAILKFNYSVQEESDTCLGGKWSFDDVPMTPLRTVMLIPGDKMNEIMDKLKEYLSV

The targets below were run with Nc1nc2c(ncn2[C@@H]2O[C@H](COP(=O)(O)OP(=O)(O)OP(=O)(O)O)[C@@H](O)[C@H]2O)c(=O)[nH]1 [guanosine triphosphate] (assay: NP40-soluble protein abundance relative to vehicle (solubility fold change) (ratio); higher = more soluble protein in presence of GTP). Conditions: concentration: 0.1mM.
How it was run: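 Across three independent experiments, values are fold changes against the detergent-processed vehicle for each replicate, based on vsn-normalised intensities. The samples were Jurkat crude lysate treated with eight concentrations (0.1 to 10 mM) for 10 min at room temperature and then 3 min at 37 °C. Lysate was solubilised with 0.8% NP40 and benzonase, ultracentrifuged, and the supernatant analysed by TMT-labelled LC-MS/MS.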

Target	NP40-soluble protein abundance
TPX2 (UniProt Q9ULW0)	1.01 ± 0.024
MRPL39 (UniProt Q9NYK5)	1.09 ± 0.096
UniProt Q9ULH0 and related entries	1.27 ± 0.34
UniProt Q9NZJ4 and related entries	1.06 ± 0.12
CFDP1 (UniProt Q9UEE9)	0.899 ± 0.11
CDV3 (UniProt Q9UKY7)	0.957 ± 0.072
CGGBP1 (UniProt Q9UFW8)	0.87 ± 0.029
PLXNA1 (UniProt Q9UIW2)	1.02 ± 0.034
CDC23 (UniProt Q9UJX2)	1.07 ± 0.097
FAM118A (UniProt Q9NWS6)	0.933 ± 0.058
UniProt Q9UBL3 and related entries	0.994 ± 0.011
UniProt Q9NXR5 and related entries	1.1 ± 0.12
UniProt Q9NY12 and related entries	1.04 ± 0.097
UniProt Q9UJX5 and related entries	1.2 ± 0.19
FASTKD2 (UniProt Q9NYY8)	1.01 ± 0.023
UniProt Q9UH92 and related entries	0.987 ± 0.02
MTPAP (UniProt Q9NVV4)	1.04 ± 0.043
UniProt Q9NX55	1 ± 0.095
UniProt Q9UIV1 and related entries	1.13 ± 0.2

Target	NP40-soluble protein abundance
UniProt Q9NV56	0.945 ± 0.026
UniProt Q9NUQ9 and related entries	0.902 ± 0.041
UniProt Q9UBI1 and related entries	0.963 ± 0.05
CPSF2 (UniProt Q9P2I0)	1.04 ± 0.047
UniProt Q9NUQ3	0.972 ± 0.044
CHMP5 (UniProt Q9NZZ3)	0.966 ± 0.082
COMMD9 (UniProt Q9P000)	0.897 ± 0.078
UniProt Q9UK53-2|A0A0C4DFW2|Q9UK53 and related entries	0.938 ± 0.13
UniProt Q9NUJ1 and related entries	1 ± 0.11
UniProt Q9P1F3	0.719 ± 0.25
UniProt Q9ULR0 and related entries	0.968 ± 0.081
AASS (UniProt Q9UDR5)	1.05 ± 0.026
UniProt Q9UDW1	0.895 ± 0.18
UniProt Q9UGU0 and related entries	1.03 ± 0.033
UniProt Q9NVX0 and related entries	0.873 ± 0.21
UniProt Q9ULV4 and related entries	0.986 ± 0.021
USE1 (UniProt Q9NZ43)	0.975 ± 0.025
UniProt Q9P287 and related entries	1.03 ± 0.026
UniProt Q9UKZ1	1.52 ± 0.81

Same assay, conditions: concentration: 0.5mM

Target	NP40-soluble protein abundance
TPX2 (UniProt Q9ULW0)	1.03 ± 0.053
MRPL39 (UniProt Q9NYK5)	1.18 ± 0.19
UniProt Q9ULH0 and related entries	1.19 ± 0.15
UniProt Q9NZJ4 and related entries	1.09 ± 0.091
CFDP1 (UniProt Q9UEE9)	0.913 ± 0.14
CDV3 (UniProt Q9UKY7)	1.05 ± 0.071
CGGBP1 (UniProt Q9UFW8)	0.821 ± 0.048
PLXNA1 (UniProt Q9UIW2)	0.979 ± 0.067
CDC23 (UniProt Q9UJX2)	1.11 ± 0.15
FAM118A (UniProt Q9NWS6)	0.948 ± 0.075
UniProt Q9UBL3 and related entries	1.04 ± 0.032
UniProt Q9NXR5 and related entries	0.986 ± 0.052
UniProt Q9NY12 and related entries	1.06 ± 0.12
UniProt Q9UJX5 and related entries	1.24 ± 0.3
FASTKD2 (UniProt Q9NYY8)	1.05 ± 0.02
UniProt Q9UH92 and related entries	0.951 ± 0.079
MTPAP (UniProt Q9NVV4)	0.972 ± 0.1
UniProt Q9NX55	0.977 ± 0.11
UniProt Q9UIV1 and related entries	1.1 ± 0.091

Target	NP40-soluble protein abundance
UniProt Q9NV56	0.879 ± 0.061
UniProt Q9NUQ9 and related entries	0.905 ± 0.062
UniProt Q9UBI1 and related entries	0.965 ± 0.053
CPSF2 (UniProt Q9P2I0)	1.09 ± 0.054
UniProt Q9NUQ3	0.956 ± 0.08
CHMP5 (UniProt Q9NZZ3)	0.946 ± 0.034
COMMD9 (UniProt Q9P000)	0.905 ± 0.087
UniProt Q9UK53-2|A0A0C4DFW2|Q9UK53 and related entries	1.04 ± 0.18
UniProt Q9NUJ1 and related entries	1.05 ± 0.11
UniProt Q9P1F3	0.744 ± 0.22
UniProt Q9ULR0 and related entries	0.97 ± 0.038
AASS (UniProt Q9UDR5)	1.02 ± 0.11
UniProt Q9UDW1	0.804 ± 0.062
UniProt Q9UGU0 and related entries	1.01 ± 0.047
UniProt Q9NVX0 and related entries	0.823 ± 0.036
UniProt Q9ULV4 and related entries	1.11 ± 0.089
USE1 (UniProt Q9NZ43)	0.954 ± 0.073
UniProt Q9P287 and related entries	0.973 ± 0.032
UniProt Q9UKZ1	1.19 ± 0.11

Same assay, conditions: concentration: 1mM

Target	NP40-soluble protein abundance
TPX2 (UniProt Q9ULW0)	1.14 ± 0.042
MRPL39 (UniProt Q9NYK5)	1.22 ± 0.26
UniProt Q9ULH0 and related entries	1.28 ± 0.43
UniProt Q9NZJ4 and related entries	1.03 ± 0.062
CFDP1 (UniProt Q9UEE9)	0.953 ± 0.13
CDV3 (UniProt Q9UKY7)	0.915 ± 0.072
CGGBP1 (UniProt Q9UFW8)	1.02 ± 0.023
PLXNA1 (UniProt Q9UIW2)	1.01 ± 0.024
CDC23 (UniProt Q9UJX2)	1.11 ± 0.18
FAM118A (UniProt Q9NWS6)	0.934 ± 0.071
UniProt Q9UBL3 and related entries	1.015 ± 0.0035
UniProt Q9NXR5 and related entries	1.13 ± 0.074
UniProt Q9NY12 and related entries	1.17 ± 0.2
UniProt Q9UJX5 and related entries	1.15 ± 0.19
FASTKD2 (UniProt Q9NYY8)	0.974 ± 0.022
UniProt Q9UH92 and related entries	0.914 ± 0.062
MTPAP (UniProt Q9NVV4)	1.07 ± 0.095
UniProt Q9NX55	1.02 ± 0.091
UniProt Q9UIV1 and related entries	1.1 ± 0.17

Target	NP40-soluble protein abundance
UniProt Q9NV56	1.01 ± 0.075
UniProt Q9NUQ9 and related entries	0.909 ± 0.087
UniProt Q9UBI1 and related entries	1.02 ± 0.023
CPSF2 (UniProt Q9P2I0)	1.09 ± 0.083
UniProt Q9NUQ3	0.973 ± 0.069
CHMP5 (UniProt Q9NZZ3)	0.977 ± 0.056
COMMD9 (UniProt Q9P000)	0.947 ± 0.069
UniProt Q9UK53-2|A0A0C4DFW2|Q9UK53 and related entries	1.03 ± 0.12
UniProt Q9NUJ1 and related entries	0.98 ± 0.096
UniProt Q9P1F3	0.707 ± 0.18
UniProt Q9ULR0 and related entries	1.09 ± 0.14
AASS (UniProt Q9UDR5)	0.968 ± 0.065
UniProt Q9UDW1	0.864 ± 0.065
UniProt Q9UGU0 and related entries	1.06 ± 0.036
UniProt Q9NVX0 and related entries	1.02 ± 0.079
UniProt Q9ULV4 and related entries	1.16 ± 0.088
USE1 (UniProt Q9NZ43)	1.01 ± 0.023
UniProt Q9P287 and related entries	0.971 ± 0.066
UniProt Q9UKZ1	1.4 ± 0.41
